± gives the uncertainty stated by the source. The uncertainty is large for many entries.
Experiment: self-splicing fitness, log relative to wild type (ln ratio); higher = more splicing; Tetrahymena group I intron in knt gene, E. coli kanamycin selection, DiMSum; sequences stand for … in CUCUCU…GGAGGGAAAAGUUAUCAGGCAUGCACCUGGUAGCUAGUCUUUAAACCAAUAGAUUGCAUCGGUUUAAAAGGCAAGACCGUCAAAUUGCGGGAAAGGGGUCAACAGCCGUUCAGUACCAAGUCUCAGGGGAAACUUUGAGAUGGCCUUGCAAAGGGUAUGGUAAUAAGCUGACGGACAUGGUCCUAACCACGCAGCCAAGUCCUAAGUCAACAGAUCUUCUGUUGAUAUGGAUGCAGUUCACAGACUAAAUGUCGGUCGGGGAAGAUGUAUUCUUCUCAUAAGAUAUAGUCGGACCUCUCCUUAAUGGGAGCUAGCGGAUGAAGUGAUGCAACACUGGAGCCGCUGGGAACUAAUUUGUAUGCGAAAGUAUAUUGAUUAGUUUUGGAGUACUCGUGGUCG
Outline: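 Fitness was computed with DiMSum as the error-weighted combination of replicate fold changes, kanamycin versus none, each normalised to wild type. The library randomised all eight intron nucleotides of the P1ex region, with the intron placed in the knt kanamycin-resistance gene on pET-22b(+) in E. coli BL21(DE3). Six replicate transformations were grown overnight at 37°C or 30°C on LB agar with or without 25 μg/mL kanamycin, plus 100 μg/mL carbenicillin, 50 μM IPTG and 0.2% rhamnose. Pooled colonies were amplicon-sequenced on an Illumina HiSeq 2500.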

Sequence	self-splicing fitness (ln) (37 °C)	self-splicing fitness (ln) (30 °C)
CAUGAGCAAUAUUACGAGAA	-2.89 ± 1.1	
UUGGAGCAAUAUUACGGUGC	-3.52 ± 0.73	
UAGGAGCAAUAUUACGGACC	-1.99 ± 0.65	-3.19 ± 0.61
CUUUAGCAAUAUUACGAAGA	-2.43 ± 0.34	
GUCGAGCAAUAUUACGGGAU	-0.94 ± 0.66	-4.74 ± 1
CGGUAGCAAUAUUACGCACC		-2.11 ± 0.69
CCAGAGCAAUAUUACGCUGG	-2.98 ± 1.1	-3.99 ± 0.61
UAGAAGCAAUAUUACGCUGA		-3.13 ± 0.53
UCGGAGCAAUAUUACGCCGG	-0.182 ± 0.73	-0.831 ± 0.51
UUUUAGCAAUAUUACGCCGC	-1.55 ± 0.59	-3.48 ± 1.1
ACAAAGCAAUAUUACGGGAA	-2.48 ± 0.17	-2.44 ± 0.18
AUAUAGCAAUAUUACGAGGA		-3.96 ± 1
UUCUAGCAAUAUUACGGCCU	-0.745 ± 0.76	
UCGGAGCAAUAUUACGCUAG	-2.38 ± 0.27	-1.87 ± 0.21
CGAGAGCAAUAUUACGGUCU	-0.909 ± 0.55	-0.974 ± 0.93
UCAUAGCAAUAUUACGCCAA	-1.71 ± 0.87	
CAGAAGCAAUAUUACGCUGC		-3.96 ± 0.53
UAGAAGCAAUAUUACGCUCC	-2.29 ± 1.1	-1.54 ± 0.56
UGUUAGCAAUAUUACGCUCU	-0.371 ± 0.16	-1.66 ± 0.16
UCCCAGCAAUAUUACGGGGA	-2.43 ± 0.16	-3.53 ± 0.17
AAUGAGCAAUAUUACGCUAG		-3.26 ± 0.74
UUACAGCAAUAUUACGGAAG	-2.05 ± 0.14	-3 ± 0.13
GAUGAGCAAUAUUACGCCGC	-2.64 ± 0.76	
CCGAAGCAAUAUUACGCUCC	-2.96 ± 0.54	

Shown with bars between the fields: entries from further up.
Sequence | self-splicing fitness (ln) (37 °C) | self-splicing fitness (ln) (30 °C)
CCAGAGCAAUAUUACGCUGG | -2.98 ± 1.1 | -3.99 ± 0.61
UCGGAGCAAUAUUACGCCGG | -0.182 ± 0.73 | -0.831 ± 0.51
GAUGAGCAAUAUUACGCCGC | -2.64 ± 0.76 | 

Going on with the list.

Sequence	self-splicing fitness (ln) (37 °C)	self-splicing fitness (ln) (30 °C)
UGUCAGCAAUAUUACGCCGA	-2.43 ± 1.1	-2.04 ± 0.61
AUCGAGCAAUAUUACGCCAA	-1.31 ± 0.52	-2.44 ± 1.1
UUCAAGCAAUAUUACGCCAC	-2.33 ± 0.5	-4.22 ± 0.76
CUACAGCAAUAUUACGGCUU	-4.03 ± 0.72	
UGAAAGCAAUAUUACGAAGC		-2.65 ± 0.63
CCAAAGCAAUAUUACGACGC	-3.88 ± 0.59	
CUGGAGCAAUAUUACGGCGC		-3.47 ± 0.76
CAGGAGCAAUAUUACGGCUC	-2.48 ± 0.54	-3.48 ± 1.1
CGGAAGCAAUAUUACGCUUG	-2.42 ± 0.27	-4.93 ± 0.72
GGUUAGCAAUAUUACGGACU		-3.09 ± 0.54
UAUUAGCAAUAUUACGAGGA	-1.54 ± 0.18	-2.33 ± 0.19
CCUGAGCAAUAUUACGGACC		-4.88 ± 0.51
UGGGAGCAAUAUUACGGCGC	-0.595 ± 1.4	
ACCAAGCAAUAUUACGUCAC	-2.89 ± 0.27	-3.68 ± 0.47
CGUGAGCAAUAUUACGCAGC		-4.77 ± 0.73
AAAGAGCAAUAUUACGACGC	-1.05 ± 0.51	-1.94 ± 0.82
CUGUAGCAAUAUUACGGGUA	-3.44 ± 0.73	
AGGUAGCAAUAUUACGCUUG	-1.04 ± 0.034	-1.541 ± 0.015
UGGCAGCAAUAUUACGCCCU	-0.12 ± 0.74	
CGGAAGCAAUAUUACGAAAC	-1.29 ± 1.2	-3 ± 0.55
GGGGAGCAAUAUUACGGAAG	-1.94 ± 0.79	
CAGGAGCAAUAUUACGCAAA	-2.63 ± 1.1	
AGAGAGCAAUAUUACGCCCA		-1.04 ± 0.67
CUUGAGCAAUAUUACGGUCC	-2.84 ± 0.61	

Sequence	self-splicing fitness (ln) (37 °C)	self-splicing fitness (ln) (30 °C)
GACGAGCAAUAUUACGGCCA		-2.56 ± 0.64
UUGUAGCAAUAUUACGGUUC	-2.22 ± 0.5	-3.92 ± 0.53
CAAUAGCAAUAUUACGAAAC		-4.91 ± 0.51
AUUUAGCAAUAUUACGAGGG		-3.96 ± 0.52
UUGCAGCAAUAUUACGCAGU	-2.71 ± 0.39	-4.59 ± 0.59
GCGCAGCAAUAUUACGGCGG	-1.28 ± 0.15	-2.48 ± 0.13
UCCGAGCAAUAUUACGAAGC		-3.77 ± 0.52
GGAGAGCAAUAUUACGUCCC		-3.5 ± 1
UGAAAGCAAUAUUACGUGGG	-2.4 ± 0.17	-3.67 ± 0.2
UUGGAGCAAUAUUACGCUCU	-1.92 ± 0.57	
UCGAAGCAAUAUUACGUGUC		-4.26 ± 0.6
UAGUAGCAAUAUUACGCCAU		-2.71 ± 1.1
ACGGAGCAAUAUUACGUUGC		-4.69 ± 0.73
GCAAAGCAAUAUUACGCAGA		-3.4 ± 1.1
GUGGAGCAAUAUUACGAUCA	-0.101 ± 0.2	-2.19 ± 0.49
AUUAAGCAAUAUUACGAGCC		-3.27 ± 0.53
GGGGAGCAAUAUUACGGAUG	-1.14 ± 0.56	-4.45 ± 0.6
CUUGAGCAAUAUUACGCGAA	-3.15 ± 0.6	
GGUUAGCAAUAUUACGACCC	-1.24 ± 0.52	
AGCCAGCAAUAUUACGUCCC	-0.595 ± 1.4	
CUUGAGCAAUAUUACGCUUG		-3.76 ± 0.6
CGAUAGCAAUAUUACGUUAA	-1.15 ± 0.16	-3.59 ± 0.21
AGGCAGCAAUAUUACGCCUU		-5.78 ± 0.58
CGCGAGCAAUAUUACGACCG	1.04 ± 0.63	-2.81 ± 1.1

Sequence	self-splicing fitness (ln) (37 °C)	self-splicing fitness (ln) (30 °C)
AGUGAGCAAUAUUACGUAGG	-3.53 ± 0.52	
GUAUAGCAAUAUUACGCAUA	-0.525 ± 0.27	-2.3 ± 0.28
AUAGAGCAAUAUUACGAAGA	-0.693 ± 1.4	
AAACAGCAAUAUUACGUCAG	-2.41 ± 0.12	-3.36 ± 0.12
GUUAAGCAAUAUUACGCUAC	-2.39 ± 1.1	
CAUAAGCAAUAUUACGAUCC	-2.71 ± 0.32	-3.25 ± 0.23
AGCGAGCAAUAUUACGCGGC	-2.26 ± 0.77	-3.48 ± 1.1
GGGAAGCAAUAUUACGCUCA		-0.366 ± 0.67
UAAGAGCAAUAUUACGCCCC	0.608 ± 1.1	
UGGGAGCAAUAUUACGGAAU		-4.05 ± 0.52
GCGGAGCAAUAUUACGGAGC	-1.13 ± 1.2	
UCCUAGCAAUAUUACGGUCC	-1.52 ± 0.56	
GGGGAGCAAUAUUACGGUAC		-3.33 ± 0.61
UCGGAGCAAUAUUACGAACG		-2.07 ± 0.63
AUUGAGCAAUAUUACGCCAC	-2.05 ± 1.1	
UGGGAGCAAUAUUACGGCUU	-2.48 ± 0.77	-2.02 ± 1.2
GACUAGCAAUAUUACGGAGG		-4.39 ± 0.51
UGGAAGCAAUAUUACGAAAC		-3.53 ± 0.78
GAUUAGCAAUAUUACGUAUC		-4.95 ± 0.51
AGGGAGCAAUAUUACGCAUG	-2.9 ± 0.74	-2.09 ± 1.4
GCCGAGCAAUAUUACGAGGC	-2.3 ± 0.37	-3.23 ± 0.35
GUCGAGCAAUAUUACGGCCC		-2.87 ± 0.75
UGCGAGCAAUAUUACGGGCU	-2.72 ± 0.62	
AUGGAGCAAUAUUACGUACC	-1.89 ± 0.81	

Sequence	self-splicing fitness (ln) (37 °C)	self-splicing fitness (ln) (30 °C)
CGGGAGCAAUAUUACGAUAU	-3.19 ± 0.6	
GAGGAGCAAUAUUACGGUAC		-5.07 ± 0.58
UAGUAGCAAUAUUACGCGAC		-2.65 ± 0.66
CUAUAGCAAUAUUACGCAGG	-2.71 ± 0.54	
UGUUAGCAAUAUUACGAAUC	-2.64 ± 0.76	
GCGUAGCAAUAUUACGAGGC	-1.53 ± 0.39	-3.03 ± 0.53
UCUGAGCAAUAUUACGGUAC	-0.95 ± 0.73	
CCCAAGCAAUAUUACGCUCC		-3.31 ± 0.53
CACCAGCAAUAUUACGCCCC	-2.68 ± 0.62	
GUAGAGCAAUAUUACGAGGA	-1.63 ± 0.53	
UGGGAGCAAUAUUACGACGA		-3.12 ± 1.1
UCCGAGCAAUAUUACGUGUC	-2.64 ± 0.34	-4.2 ± 1
GGCGAGCAAUAUUACGAGCU	-1.54 ± 0.67	-4.29 ± 0.52
CGAGAGCAAUAUUACGGGUC		-3.77 ± 0.53
GUCUAGCAAUAUUACGAGCC	-1.15 ± 0.67	-1.32 ± 1.4
CAGAAGCAAUAUUACGGAAA		-1.74 ± 0.59
GGGUAGCAAUAUUACGCUUC	-2.48 ± 1.1	
UUAGAGCAAUAUUACGCCUC	-2.29 ± 1.1	-3.23 ± 0.78
UGUGAGCAAUAUUACGAGUC	-3.54 ± 0.6	
UGGAAGCAAUAUUACGGAUU	-1.68 ± 0.12	-1.49 ± 0.08
AGGAAGCAAUAUUACGGCAU	-0.506 ± 0.15	-1.28 ± 0.13
GUGAAGCAAUAUUACGGACC	-0.595 ± 1.4	-0.562 ± 0.53
UUAUAGCAAUAUUACGGAUC	-2.45 ± 0.54	
GAGGAGCAAUAUUACGCAUU	-0.645 ± 0.33	-2.99 ± 0.43

From the supplement of paper PMC7877785
